PubChem BioAssay AID686938 | Drosophila RNAi Screening Center, 2013
Purpose: 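Fly genes required for calcium entry once internal stores are emptied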 (primary screen). Cell system: Drosophila S2R+ cells. Reagents: long dsRNA against Drosophila genes, about 0.25 µg dsRNA per well, roughly 10,000 cells. Time to read-out: 5 days of knock-down before the calcium assay. Treatment: thapsigargin (SERCA pump blocker) to empty calcium stores; entry signal taken 4 min after adding it. Read-out: 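Per-well fluo-4 fluorescence in two replicates, unnormalised, measured in resting cells and 4 min after store depletion by the SERCA blocker thapsigargin; ratio of the two present in few wells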. Scale: calcium entry signal: higher = stronger calcium signal after store depletion; resting calcium signal: higher = higher resting calcium signal. Units: calcium entry signal in fluorescence units; resting calcium signal in fluorescence units. Hit rule: 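Called when the plate z-score of the entry-to-rest ratio, mean of duplicates, falls below −3; wells with low overall dye signal (Fmax z below −2) or more than five off-targets excluded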. Calls: active = strongly reduced calcium entry; inactive = no strong reduction.
In all, the deposit lists about 23,000 reagents; below is an unselected part of those with a known target gene and a result. Over the whole deposit, 75 (0.33%) were called active. 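Raw plate signals without normalisation; calls rest on plate z-scores that were not deposited; ratio present for only 364 wells.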 A number with no mark means an inactive call. Not stated in the record: the dose of the treatment.

target | dsRNA | calcium entry signal, replicate 1 | calcium entry signal, replicate 2 | resting calcium signal, replicate 1 | resting calcium signal, replicate 2
Nup153 | DRSC19904 | 1.94e7 | 3.16e7 | 1.18e7 | 1.80e7
Ugt35E1 | DRSC15193 | 2.59e7 | 2.23e7 | 1.25e7 | 1.29e7
Msh6 | DRSC10759 | 3.35e7 | 5.00e7 | 1.82e7 | 2.12e7
Map60 | DRSC07464 | 3.71e7 | 3.00e7 | 1.64e7 | 1.49e7
TwdlU | DRSC12224 | 2.71e7 | 4.05e7 | 1.20e7 | 1.59e7
Adi1 | DRSC10945 | 2.38e7 | 3.07e7 | 1.29e7 | 1.35e7
Adi1 | DRSC21485 | 2.49e7 | 3.54e7 | 1.21e7 | 1.54e7
GluRS-m | DRSC10431 | 3.92e7 | 6.34e7 | 1.83e7 | 2.42e7
SmydA-2 | DRSC10296 | 1.83e7 | 3.75e7 | 9.59e6 | 1.62e7
CG4860 | DRSC15664 | 3.81e7 | 4.90e7 | 1.71e7 | 2.46e7
CG4860 | DRSC21755 | 2.98e7 | 3.01e7 | 1.60e7 | 1.54e7
CG44774 | DRSC18342 | 2.82e7 | 3.77e7 | 1.47e7 | 1.65e7
CG31826 | DRSC03357 | 4.52e7 | 3.20e7 | 1.93e7 | 1.45e7
Ser7 | DRSC18201 | 4.23e7 | 4.60e7 | 1.98e7 | 2.05e7
CG10494 | DRSC04072 | 4.44e7 | – | 2.30e7 | –
CG13043 | DRSC09924 | 4.56e7 | 5.84e7 | 2.06e7 | 2.57e7
CG14118 | DRSC10122 | 2.73e7 | 4.39e7 | 1.54e7 | 1.83e7
elm | DRSC12309 | 2.87e7 | 3.81e7 | 1.31e7 | 1.66e7
esc | DRSC03529 | 4.46e7 | – | 2.13e7 | –
Clamp | DRSC03718 | 3.73e7 | – | 1.94e7 | –
Clamp | DRSC21682 | 3.11e7 | 2.72e7 | 1.80e7 | 1.54e7
CG33217 | DRSC22907 | 3.75e7 | 5.21e7 | 2.05e7 | 2.22e7
yata | DRSC15408 | 4.34e7 | 5.37e7 | 2.17e7 | 2.33e7
CG2061 | DRSC19348 | 2.47e7 | 2.75e7 | 1.14e7 | 1.21e7
Srp9 | DRSC10973 | 3.74e7 | 4.97e7 | 1.72e7 | 2.29e7
CG11454 | DRSC00310 | 3.88e7 | – | 1.77e7 | –
CG9338 | DRSC03213 | 3.21e7 | – | 1.59e7 | –
CG6184 | DRSC15986 | 3.94e7 | 3.97e7 | 4.94e7 | 2.01e7
Notum | DRSC09959 | 3.99e7 | 4.53e7 | 1.86e7 | 1.69e7
CG14507 | DRSC14859 | 3.20e7 | 4.53e7 | 1.70e7 | 2.10e7
CG32061 | DRSC22605 | 3.80e7 | 3.96e7 | 2.31e7 | 1.87e7
Dso1 | DRSC21815 | 2.67e7 | 2.66e7 | 1.58e7 | 1.76e7
CG31681 | DRSC00107 | 2.96e7 | 3.05e7 | 1.67e7 | 1.36e7
Adss | DRSC14162 | 3.83e7 | 3.41e7 | 1.76e7 | 1.55e7
CG15099 | DRSC06528 | 2.59e7 | 2.47e7 | 1.21e7 | 1.23e7
CG5262 | DRSC11773 | 3.91e7 | 4.74e7 | 1.80e7 | 3.34e7
XNP | DRSC15594 | 2.12e7 | 1.93e7 | 1.02e7 | 1.01e7
Pde9 | DRSC19746 | 2.77e7 | 4.02e7 | 1.40e7 | 1.85e7
Pde9 | DRSC19874 | 4.44e7 | 5.06e7 | 2.11e7 | 2.38e7
Pde9 | DRSC19875 | 4.11e7 | 5.32e7 | 2.01e7 | 2.33e7
Pde9 | DRSC19876 | 3.99e7 | 3.86e7 | 1.87e7 | 1.72e7
Prim1 | DRSC11137 | 2.29e7 | 2.99e7 | 1.23e7 | 1.70e7
CG9386 | DRSC16485 | 3.10e7 | 3.64e7 | 1.50e7 | 1.77e7
spin | DRSC07176 | 3.45e7 | 4.74e7 | 1.58e7 | 2.10e7
spin | DRSC22271 | 2.46e7 | 3.90e7 | 1.19e7 | 1.90e7
Osi23 | DRSC15074 | 3.19e7 | 4.92e7 | 1.70e7 | 1.96e7
CG14459 | DRSC11719 | 2.12e7 | 3.78e7 | 1.50e7 | 2.04e7
CG14459 | DRSC23039 | 3.15e7 | 3.72e7 | 1.54e7 | 1.62e7
CG31102 | DRSC14260 | 3.01e7 | 5.22e7 | 1.68e7 | 2.30e7
Syx7 | DRSC11763 | 2.56e7 | 4.57e7 | 1.44e7 | 3.02e7
Abcd1 | DRSC17157 | 4.85e7 | 4.56e7 | 2.11e7 | 2.07e7
MFS3 | DRSC00664 | 2.99e7 | 3.13e7 | 1.51e7 | 1.49e7
Sb | DRSC16851 | 3.91e7 | 5.46e7 | 1.85e7 | 6.36e7
CG6583 | DRSC02972 | 3.30e7 | 2.10e7 | 1.51e7 | 1.10e7
CG43110 | DRSC05661 | 3.32e7 | 3.99e7 | 1.71e7 | 2.01e7
rumi | DRSC15177 | 4.16e7 | 3.87e7 | 1.90e7 | 1.67e7
CG16736 | DRSC15145 | 4.07e7 | 4.11e7 | 2.00e7 | 1.79e7
CG3764 | DRSC10375 | 3.15e7 | 4.61e7 | 1.40e7 | 2.87e7

3 entries from above, ordered by “calcium entry signal, replicate 2”, lowest first:
target | dsRNA | calcium entry signal, replicate 1 | calcium entry signal, replicate 2 | resting calcium signal, replicate 1 | resting calcium signal, replicate 2
CG32061 | DRSC22605 | 3.80e7 | 3.96e7 | 2.31e7 | 1.87e7
Notum | DRSC09959 | 3.99e7 | 4.53e7 | 1.86e7 | 1.69e7
CG14507 | DRSC14859 | 3.20e7 | 4.53e7 | 1.70e7 | 2.10e7
